These are yes or no findings as the source states them, for the method shown. Binding seen in cells or lysates may run through a third protein. Some results given as binding are weak or reduced against the parent protein; the word gives no strength.
Experiments:
[1] = biological target: High mobility group box 1 (HMGB1), endogenous in human THP1 cell line-derived macrophages (human (endogenous in THP1 cell line-derived macrophages)) (UniProt P09429); test: co-IP; cell lysates (Pierce IP lysis buffer, protease inhibitors) incubated with anti-HMGB1 antibody or control IgG and Protein A/G agarose overnight at 4 °C, washed three times with PBS, immunoblot for HMGB1 and RAGE; also the reverse with anti-RAGE antibody (Fig. 5B)
[2] = biological target: High mobility group box 1 (HMGB1), endogenous in mouse RAW264.7 macrophages (mouse (endogenous in RAW264.7)) (UniProt P63158); test: as above

Chains of the proteins cited; added tags and fusions are not shown. Residues count along the entry.
UniProt P09429: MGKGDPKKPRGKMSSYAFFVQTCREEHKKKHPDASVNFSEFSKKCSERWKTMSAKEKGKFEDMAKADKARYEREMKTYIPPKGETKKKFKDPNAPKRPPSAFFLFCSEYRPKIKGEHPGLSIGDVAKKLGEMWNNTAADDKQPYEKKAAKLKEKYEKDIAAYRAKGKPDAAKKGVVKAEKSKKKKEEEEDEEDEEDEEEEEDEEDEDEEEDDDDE
UniProt P63158: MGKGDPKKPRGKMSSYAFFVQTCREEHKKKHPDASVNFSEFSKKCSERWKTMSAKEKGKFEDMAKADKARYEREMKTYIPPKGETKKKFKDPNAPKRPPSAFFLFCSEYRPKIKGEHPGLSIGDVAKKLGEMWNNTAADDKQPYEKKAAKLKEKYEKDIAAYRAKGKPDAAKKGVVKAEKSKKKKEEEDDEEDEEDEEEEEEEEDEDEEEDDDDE
UniProt Q15109, residues 23-404: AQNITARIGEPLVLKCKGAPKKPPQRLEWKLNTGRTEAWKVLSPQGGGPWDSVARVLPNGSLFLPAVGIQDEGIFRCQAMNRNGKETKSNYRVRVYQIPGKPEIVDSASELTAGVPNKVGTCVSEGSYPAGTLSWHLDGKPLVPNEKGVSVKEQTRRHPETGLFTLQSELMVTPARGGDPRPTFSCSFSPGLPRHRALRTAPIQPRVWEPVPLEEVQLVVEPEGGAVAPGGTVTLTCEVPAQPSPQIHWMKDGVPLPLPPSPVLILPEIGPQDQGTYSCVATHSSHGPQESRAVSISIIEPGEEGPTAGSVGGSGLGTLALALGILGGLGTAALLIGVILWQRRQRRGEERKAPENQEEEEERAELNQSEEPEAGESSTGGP
UniProt Q62151, residues 23-402: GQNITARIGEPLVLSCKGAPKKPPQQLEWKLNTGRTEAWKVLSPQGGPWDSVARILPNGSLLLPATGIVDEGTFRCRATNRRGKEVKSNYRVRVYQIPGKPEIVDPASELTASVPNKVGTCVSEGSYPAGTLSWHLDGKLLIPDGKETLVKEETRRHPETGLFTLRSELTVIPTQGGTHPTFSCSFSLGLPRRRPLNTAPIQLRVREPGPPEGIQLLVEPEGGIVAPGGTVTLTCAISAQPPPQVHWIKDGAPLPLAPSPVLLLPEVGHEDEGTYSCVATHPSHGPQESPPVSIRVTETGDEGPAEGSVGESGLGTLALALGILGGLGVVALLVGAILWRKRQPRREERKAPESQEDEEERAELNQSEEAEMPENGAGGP

| Substance | binding [1] | binding [2] |
| --- | --- | --- |
| Receptor for advanced glycation end products (RAGE), endogenous in human THP1 cell line-derived macrophages (from UniProt Q15109 23-404) | binds | – |
| Receptor for advanced glycation end products (RAGE), endogenous in mouse RAW264.7 macrophages (from UniProt Q62151 23-402) | – | binds |

Reference: PMC8862393
